Results deposited as PubChem BioAssay AID504786 (Drosophila RNAi Screening Center, 2011).
Screen: 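Knock-downs reducing HIF reporter induction by the iron chelator DFO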 (primary screen). Cell system: Drosophila S2 cells with a stable HIF luciferase reporter. Reagents: long dsRNA against Drosophila genes, about 0.2 µg dsRNA per well of a 384-well plate. Time to read-out: three days of knock-down, then 20 h of DFO before reading. Treatment: desferrioxamine (DFO) at 100 µM, an iron chelator that mimics hypoxia, for 20 h. Measured: 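Firefly luciferase driven by the mouse ldh-a hypoxia-response element, measured after 20 h of 100 µM DFO; z-scores per plate, higher means more signal lost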. Direction: z-score: higher = stronger loss of HIF reporter signal.
In all, the deposit lists about 21,000 reagents; below is an unselected part of those that have a named target and a result. 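Primary screen; positive scores mean lost reporter signal, so the sign may be inverted from the usual convention.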 A plus sign joins genes that one reagent is predicted to hit.

no.	Gene	amplicon	z-score, replicate 1	z-score, replicate 2	z-score, replicate 3	z-score, replicate 4
1	eIF4A (eukaryotic translation initiation factor 4A)	DRSC03526	8.6	5		
2	His-Psi:CR31616 + His-Psi:CR31615	DRSC03760	3.3	2.6		
3	Sesn (Sestrin)	DRSC04101	0.1	0		
4	Sesn (Sestrin)	DRSC04102	0	-0.3		
5	Sesn (Sestrin)	DRSC04103	-0.4	-0.4		
6	CG17075	DRSC00483	-0.3	-0.4		
7	CG3191	DRSC18530	-0.3	-0.3		
8	Nrx-1 (Neurexin 1)	DRSC16184	-0.3	-0.8		
9	CG17707	DRSC20650	-0.1	-0.2		
10	Sdc (Syndecan)	DRSC04654	-0.2	-0.4		
11	CG11807	DRSC06087	0	0.4		
12	Prim2 (DNA primase subunit 2)	DRSC11610	1	1.3		
13	CG40583 (retired record)	DRSC20938	-0.1	-0.1		
14	CCT4 (Chaperonin containing TCP1 subunit 4)	DRSC02865	-0.2	2.6		
15	qkr54B (quaking related 54B)	DRSC07670	-0.4	-0.9		
16	CG8818	DRSC07275	-0.3	-0.2		
17	OtopLb (Otopetrin-like b)	DRSC00594	-0.4	-0.6		
18	CG14050	DRSC18594	-0.2	0.3		
19	CG9098	DRSC03136	-0.2	0.9	-0.4	-0.3
20	Zcchc7 (Zinc finger CCHC-type containing 7)	DRSC11099	-0.2	-0.2		
21	enok (enoki mushroom)	DRSC04096	1.3	1.4		
22	CG30151	DRSC05888	0.3	0		
23	htt (huntingtin)	DRSC16970	-0.2	-0.4		
24	CG12182	DRSC08142	-0.1	0.4		
25	CG1628	DRSC18109	-0.4	-0.4		
26	Acsx1L (Acyl-CoA synthetase X1 L)	DRSC16014	-1.2	-0.2		
27	HP1b (Heterochromatin Protein 1b)	DRSC18418	-0.1	-0.1		
28	mRRF1 (mitochondrial ribosome recycling factor 1)	DRSC10421	-0.3	-0.6		
29	Hug (Hugin)	DRSC16969	-0.4	-0.4		
30	CG5687	DRSC08568	0.1	0.1		
31	Yp2 (Yolk protein 2)	DRSC18732	-0.2	-0.3		
32	CG12438	DRSC02167	-0.1	0.1		
33	scpr-A + scpr-C	DRSC15737	-0.4	0.5		
34	CG6878	DRSC10737	-0.5	-0.4		
35	para (paralytic)	DRSC19141	-0.3	-0.4		
36	para (paralytic)	DRSC20360	-0.2	0.8		
37	CG14309	DRSC14788	-0.8	0		
38	CG11322	DRSC02142	-0.4	-0.2		
39	CG7179	DRSC03020	-0.2	-0.2		
40	TkR99D (Tachykinin-like receptor at 99D)	DRSC16881	-0.3	0.2		
41	Ufd4 (Ubiquitin fusion-degradation 4-like)	DRSC02871	0.8	0.5		
42	MME1 (Mitochondrial Magnesium Exporter 1)	DRSC02714	-0.1	-0.5		
43	Syb (Synaptobrevin)	DRSC07559	-0.4	-0.5		
44	CG14232	DRSC19588	-0.3	0.1		
45	disco (disconnected)	DRSC20323	-0.3	0.3		
46	chic (chickadee)	DRSC03507	-0.1	-0.3		
47	Plod (procollagen lysyl hydroxylase)	DRSC10601	0	-0.5		
48	Plod (procollagen lysyl hydroxylase)	DRSC10602	-0.2	-0.5		
49	CG17930	DRSC15292	-0.1	-0.6		
50	CG17168	DRSC20904	1.8	1.8		
51	ldbr (lariat debranching enzyme)	DRSC10933	-0.2	0		
52	Tollo	DRSC11305	-0.4	-0.1		
53	Cpes (Ceramide phosphoethanolamine synthase)	DRSC04475	0.3	3.1		
54	Sap-r (Saposin-related)	DRSC16849	-0.3	-0.4	-0.6	0.1
55	GAA1 (Glycosylphosphatidylinositol anchor attachment 1)	DRSC18267	-0.3	0		
56	rtet (tetracycline resistance)	DRSC14160	-0.2	-0.2		

Individual results from the list:
Entry of Hug (Hugin) [DRSC16969] under “z-score, replicate 2”: -0.4
For “z-score, replicate 2”, CG17168 [DRSC20904] reads 1.8
Under “z-score, replicate 1”, CG14309 [DRSC14788] is entered as -0.8
rtet (tetracycline resistance) [DRSC14160], z-score, replicate 1 → -0.2
Result of para (paralytic) [DRSC19141] in “z-score, replicate 2”: -0.4
Sesn (Sestrin) [DRSC04102], z-score, replicate 2 → -0.3
